Consider one substance from patent publication US6987089.

Sequences of proteins named here, by UniProt entry; tags and fusion partners are left off. A change or cut given only in a name is not applied to a line headed by its entry.
UniProt P0A7C2: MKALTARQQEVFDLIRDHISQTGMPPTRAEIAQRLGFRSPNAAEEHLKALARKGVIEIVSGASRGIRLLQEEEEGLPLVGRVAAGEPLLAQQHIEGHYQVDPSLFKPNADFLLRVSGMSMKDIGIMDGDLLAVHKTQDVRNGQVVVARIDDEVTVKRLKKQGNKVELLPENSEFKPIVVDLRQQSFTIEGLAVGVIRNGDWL
UniProt O54788: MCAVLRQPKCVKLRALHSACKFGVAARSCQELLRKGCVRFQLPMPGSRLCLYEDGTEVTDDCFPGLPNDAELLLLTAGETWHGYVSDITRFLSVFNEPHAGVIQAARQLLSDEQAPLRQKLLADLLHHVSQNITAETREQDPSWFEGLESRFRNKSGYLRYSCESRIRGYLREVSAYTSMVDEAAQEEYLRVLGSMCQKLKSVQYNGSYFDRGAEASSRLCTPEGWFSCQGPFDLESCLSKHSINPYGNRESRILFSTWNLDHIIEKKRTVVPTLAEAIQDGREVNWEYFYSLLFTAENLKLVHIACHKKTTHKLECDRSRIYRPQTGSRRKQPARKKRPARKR
UniProt Q9UK41: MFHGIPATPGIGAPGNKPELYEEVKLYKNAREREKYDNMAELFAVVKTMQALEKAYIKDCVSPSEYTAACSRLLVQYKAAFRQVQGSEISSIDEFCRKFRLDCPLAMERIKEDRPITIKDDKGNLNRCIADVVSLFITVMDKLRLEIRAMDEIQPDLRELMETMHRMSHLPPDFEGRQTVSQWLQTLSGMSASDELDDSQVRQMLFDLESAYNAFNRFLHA

This assay has as its target mouse CAD as yeast 2-hybrid bait (in the same manner as Example 1-1) (mouse) (UniProt P0A7C2+O54788). The assay is described as follows: yeast 2-hybrid screen, mouse CAD as bait, human fetal brain cDNA library.

These are yes or no findings as the source states them, for the method shown. Some results given as binding are weak or reduced against the parent protein; the word gives no strength.

“human CIA clones from the human fetal brain cDNA library (yeast 2-hybrid prey) (from UniProt Q9UK41 1-221)”: the binding entry was “binds”.
